Measured values taken from US5250700A, “Phenyl pyrazolidinones as bronchodilators and anti-inflammatory agents” (American Home Products Corporation, priority 1992, dated 1993).
Counter-ions that a name gives are not always drawn. At least one structure is not confirmed: it was looked up by name or label, or the drawing left a doubt.

Tested on: PDE IV
Assay: Inhibition of PDE IV isolated from canine tracheal muscle (cAMP metabolism)
Type: biochemical
Settings: canine trachealis PDE IV, 1 μM 3H-cAMP, 10 μM CI-930, 30° C., pH 7.8; reduction expressed relative to 10 μM rolipram
Method: The following assay is employed to assess the ability of the compound of the invention to inhibit PDE IV. A solution containing PDE IV is prepared from canine tracheal muscle as follows: The dog is euthanized with an overdose of euthanasia while under anesthesia induced by a 33 mg/kg IV bolus of Nembutal. The trachealis muscle is removed, cleaned of connective tissue, and minced thoroughly. Three to four grams of tissue is then homogenized in Trim-HCl buffer (pH 7.8) using a Polytron. The homogenate is then centrifuged at 25,000×g (4° C.) for 30 minutes. The supernatant is decanted and filtered through four layers of gauze, and applied to a 40 cm×2 cm DEAE-Sepharose column that is equilibrated with Trim-HCl buffer (pH 7.8). The column is then washed with an additional 240 mL of buffer to remove unbound proteins. […] Each fraction is assayed for cAMP- and cGMP- metabolizing PDE activity. Fractions eluting at approximately 0.6 M Na-acetate, and containing CAMP but not CGMP metabolic activity are pooled and used as a PDE stock solution for assaying PDE IV inhibitory activity. […] CI-930 is included as an inhibitor of the cyclic GMP-sensitive, cyclic AMP-selectivePDE (PDE III) that is also present in the PDE IV stock solution when prepared as described above.

COc1ccc(C2CC(=O)N(C(N)=O)N2C)cc1OC1CCCC1 (stereo not shown) [Example 8, 3-[3-(Cyclopentyloxy)-4-methoxyphenyl]-2-methyl-5-oxo-pyrazolidinecarboxamide, hydrochloride]
IC50: 160 nM
